Measurements published in article doi:10.1101/2020.02.14.949289.
Results are given in words; binding and its absence hold for the method and conditions named. In cells and extracts the contact can be indirect. Some entries that bind do so weakly or less than the wild type. Sequences can lack the tags named with a protein.

Target: T1, Flag-SPRTN^wt (UniProt Q9H040)
T1 sequence: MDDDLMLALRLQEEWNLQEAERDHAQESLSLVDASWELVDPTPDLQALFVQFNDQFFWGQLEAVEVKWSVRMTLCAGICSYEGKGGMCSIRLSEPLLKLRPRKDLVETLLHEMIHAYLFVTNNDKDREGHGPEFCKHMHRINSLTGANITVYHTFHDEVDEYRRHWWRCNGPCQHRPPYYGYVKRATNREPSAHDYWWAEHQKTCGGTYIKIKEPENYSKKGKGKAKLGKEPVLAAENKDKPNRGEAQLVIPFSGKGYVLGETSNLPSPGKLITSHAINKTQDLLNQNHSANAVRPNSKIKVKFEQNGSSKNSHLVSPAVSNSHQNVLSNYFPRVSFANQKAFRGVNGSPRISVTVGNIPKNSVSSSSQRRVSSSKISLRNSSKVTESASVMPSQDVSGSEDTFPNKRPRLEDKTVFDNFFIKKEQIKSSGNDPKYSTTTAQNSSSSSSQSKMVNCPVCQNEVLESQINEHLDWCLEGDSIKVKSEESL
Experiment: co-IP

ATPase p97 (from UniProt P55072 1-806)
binding: binds
